Assay results published in patent US20080292639A1.
No constants are given. Whether binding was seen depends on the method and setting. Some entries that bind do so weakly or less than the wild type.

Sequences of proteins named here, by UniProt entry; tags and fusion partners are left off. Residues count along the entry.
UniProt P05067, residues 672-713: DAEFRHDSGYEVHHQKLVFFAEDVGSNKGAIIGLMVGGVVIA

B1: murine monoclonal anti-amyloid antibody 2.1 (antibody, mouse IgG1, kappa, V domains shown)
VH: QVTLKESGPGILKPSQTLSLTCSFSGFSLRTSGMGVGWIRQPSGKGLEWLAHIWWDDDKSYNPSLKSQLTISKDTSRNQVFLKITSVDTADTATYYCARRNYYYDDYFAYWGQGTTLTVSS
VL: DVLMTQTPLSLPVSLGDQASISCRSSQSIVHSNGNTYLEWYLQKPGQSPKLLIYKVSNRFSGVPDRFSGSGSGTDFTLKISRVEAEDLGVYYCFQGSHVPLTFGAGTKLELKR
B2: 2.1 B (antibody, human IgG1, kappa, V domains shown)
VH: QVTLRESGPALVKPTQTLTLTCTFSGFSLRTSGMGVGWIRQPPGKALEWLAHIWWDDDKSYNPSLKSQLTISKDTSKNQVVLTMTNMDPVDTATYYCARRNYYYDDYFAYWGQGTLVTVSS
VL: DVVMTQSPLSLPVTLGQPASISCRSSQSIVHSNGNTYLEWFVQRPGQSPRVLIYKVSNRFSGVPDRFSGSGSGTDFTLKISRVEAEDVGVYYCFQGSHVPLTFGGGTKLEIKR

How the values were obtained:
[1] = target: amyloid plaques in unfixed brain sections of a human AD patient (human) (UniProt P05067); experiment: immunohistochemistry on unfixed brain sections
[2] = target: native amyloid plaques in unfixed brain sections of Tg2576 APP transgenic mice (human) (UniProt P05067); experiment: immunohistochemistry on unfixed brain sections
[3] = target: amyloid plaques in unfixed brain sections of a human AD patient (human) (UniProt P05067); experiment: immunohistochemistry on unfixed human AD brain sections
[4] = target: native amyloid plaques in unfixed brain sections of Tg2576 APP transgenic mice (human) (UniProt P05067); experiment: immunohistochemistry on unfixed Tg2576 mouse brain sections
[5] = target: native amyloid plaques in unfixed brain sections of Tg2576 APP transgenic mice (human) (UniProt P05067); experiment: immunohistochemistry on unfixed Tg2576 mouse brain sections, relative score

Binder | binding [1] | binding [2] | binding [3] | binding [4] | binding [5]
B1 | binds | binds | binds | binds | –
B2 | – | – | – | – | binds
